# Experimental data: PMC5789818
# Amino acid sequences for entries named in this document (tags omitted). Residues count along the entry.
# UniProt P14625, residues 22-803: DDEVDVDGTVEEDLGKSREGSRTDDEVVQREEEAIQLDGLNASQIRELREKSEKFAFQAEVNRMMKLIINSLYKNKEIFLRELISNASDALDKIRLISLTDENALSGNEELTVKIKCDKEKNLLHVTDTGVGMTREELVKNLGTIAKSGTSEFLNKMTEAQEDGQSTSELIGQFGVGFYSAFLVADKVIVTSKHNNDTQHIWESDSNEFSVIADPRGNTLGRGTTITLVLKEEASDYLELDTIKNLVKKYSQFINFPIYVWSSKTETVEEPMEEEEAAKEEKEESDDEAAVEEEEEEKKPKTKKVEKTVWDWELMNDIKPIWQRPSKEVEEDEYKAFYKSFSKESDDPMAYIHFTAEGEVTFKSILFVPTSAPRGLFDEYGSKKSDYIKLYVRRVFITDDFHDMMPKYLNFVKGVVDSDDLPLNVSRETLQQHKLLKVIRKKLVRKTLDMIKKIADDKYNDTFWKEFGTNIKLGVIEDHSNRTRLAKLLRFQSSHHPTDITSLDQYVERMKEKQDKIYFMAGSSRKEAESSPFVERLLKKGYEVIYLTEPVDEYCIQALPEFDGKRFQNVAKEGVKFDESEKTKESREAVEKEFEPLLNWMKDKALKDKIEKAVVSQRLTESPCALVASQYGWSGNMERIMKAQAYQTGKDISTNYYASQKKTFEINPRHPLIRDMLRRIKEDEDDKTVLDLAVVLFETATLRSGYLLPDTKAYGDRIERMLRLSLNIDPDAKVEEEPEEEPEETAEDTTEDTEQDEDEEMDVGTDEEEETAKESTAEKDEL
# UniProt P07437: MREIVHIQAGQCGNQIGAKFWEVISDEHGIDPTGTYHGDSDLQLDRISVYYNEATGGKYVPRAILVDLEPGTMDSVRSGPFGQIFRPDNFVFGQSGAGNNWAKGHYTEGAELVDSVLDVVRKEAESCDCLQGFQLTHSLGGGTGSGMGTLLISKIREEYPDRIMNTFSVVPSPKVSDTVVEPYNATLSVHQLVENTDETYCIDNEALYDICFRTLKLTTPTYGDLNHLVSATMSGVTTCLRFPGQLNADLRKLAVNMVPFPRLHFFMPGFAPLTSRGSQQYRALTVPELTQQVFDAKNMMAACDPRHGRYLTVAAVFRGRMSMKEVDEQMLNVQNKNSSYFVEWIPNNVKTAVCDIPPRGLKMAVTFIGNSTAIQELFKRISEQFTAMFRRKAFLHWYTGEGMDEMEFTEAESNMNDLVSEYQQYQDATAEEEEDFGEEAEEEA
# UniProt P62258: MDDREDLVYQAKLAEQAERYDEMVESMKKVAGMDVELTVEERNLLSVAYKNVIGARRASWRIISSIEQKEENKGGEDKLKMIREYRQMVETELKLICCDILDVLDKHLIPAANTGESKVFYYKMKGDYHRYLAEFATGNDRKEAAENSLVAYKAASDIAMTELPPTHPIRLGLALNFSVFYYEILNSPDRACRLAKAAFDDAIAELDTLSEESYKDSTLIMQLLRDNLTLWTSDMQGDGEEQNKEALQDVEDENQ
# UniProt Q92522: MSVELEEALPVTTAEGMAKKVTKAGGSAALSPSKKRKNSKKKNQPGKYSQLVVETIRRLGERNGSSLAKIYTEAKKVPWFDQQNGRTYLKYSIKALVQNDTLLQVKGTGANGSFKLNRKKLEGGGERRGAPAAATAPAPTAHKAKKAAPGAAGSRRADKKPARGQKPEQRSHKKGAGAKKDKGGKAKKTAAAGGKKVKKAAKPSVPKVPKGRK
# UniProt P46940: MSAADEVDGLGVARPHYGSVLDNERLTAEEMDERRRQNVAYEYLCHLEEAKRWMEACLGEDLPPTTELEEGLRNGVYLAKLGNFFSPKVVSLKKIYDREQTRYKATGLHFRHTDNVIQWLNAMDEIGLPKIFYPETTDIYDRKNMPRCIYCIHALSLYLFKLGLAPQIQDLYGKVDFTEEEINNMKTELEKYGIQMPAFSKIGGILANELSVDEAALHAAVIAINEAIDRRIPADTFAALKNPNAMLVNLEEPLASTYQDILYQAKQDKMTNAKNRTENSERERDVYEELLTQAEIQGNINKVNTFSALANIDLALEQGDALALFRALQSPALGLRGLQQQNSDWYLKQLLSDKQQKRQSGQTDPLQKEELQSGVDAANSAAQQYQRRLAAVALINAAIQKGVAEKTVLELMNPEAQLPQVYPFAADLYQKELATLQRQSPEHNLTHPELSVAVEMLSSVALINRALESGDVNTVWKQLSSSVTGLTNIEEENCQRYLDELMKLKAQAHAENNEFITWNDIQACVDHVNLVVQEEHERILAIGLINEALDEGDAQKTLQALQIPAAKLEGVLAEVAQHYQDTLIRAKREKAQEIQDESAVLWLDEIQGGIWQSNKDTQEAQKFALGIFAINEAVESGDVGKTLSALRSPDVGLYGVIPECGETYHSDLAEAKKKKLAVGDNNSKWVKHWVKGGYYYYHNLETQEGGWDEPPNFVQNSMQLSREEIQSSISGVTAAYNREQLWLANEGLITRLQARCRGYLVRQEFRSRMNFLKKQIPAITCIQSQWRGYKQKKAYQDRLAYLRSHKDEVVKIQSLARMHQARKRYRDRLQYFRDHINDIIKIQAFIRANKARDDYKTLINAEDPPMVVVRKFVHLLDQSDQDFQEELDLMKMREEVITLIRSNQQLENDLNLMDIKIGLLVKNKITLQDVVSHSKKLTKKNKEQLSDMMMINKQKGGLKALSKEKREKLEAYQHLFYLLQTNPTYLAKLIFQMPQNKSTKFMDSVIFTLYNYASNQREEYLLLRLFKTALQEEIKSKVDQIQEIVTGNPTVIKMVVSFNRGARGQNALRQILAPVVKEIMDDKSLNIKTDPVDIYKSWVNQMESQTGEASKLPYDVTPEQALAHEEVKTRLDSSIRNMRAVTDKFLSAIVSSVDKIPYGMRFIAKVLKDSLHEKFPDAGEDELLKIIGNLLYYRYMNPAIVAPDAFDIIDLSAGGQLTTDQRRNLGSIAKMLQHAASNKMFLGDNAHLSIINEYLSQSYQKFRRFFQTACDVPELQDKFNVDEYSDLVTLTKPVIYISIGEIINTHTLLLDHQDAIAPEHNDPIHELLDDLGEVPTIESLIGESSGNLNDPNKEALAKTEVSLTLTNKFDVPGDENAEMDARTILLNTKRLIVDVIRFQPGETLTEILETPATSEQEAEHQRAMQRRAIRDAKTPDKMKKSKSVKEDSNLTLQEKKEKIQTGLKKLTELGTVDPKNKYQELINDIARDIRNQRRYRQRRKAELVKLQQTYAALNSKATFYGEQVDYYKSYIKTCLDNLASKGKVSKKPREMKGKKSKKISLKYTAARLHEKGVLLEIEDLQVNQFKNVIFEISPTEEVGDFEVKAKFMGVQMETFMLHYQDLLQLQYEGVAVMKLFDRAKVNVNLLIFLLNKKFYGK
# UniProt Q92841: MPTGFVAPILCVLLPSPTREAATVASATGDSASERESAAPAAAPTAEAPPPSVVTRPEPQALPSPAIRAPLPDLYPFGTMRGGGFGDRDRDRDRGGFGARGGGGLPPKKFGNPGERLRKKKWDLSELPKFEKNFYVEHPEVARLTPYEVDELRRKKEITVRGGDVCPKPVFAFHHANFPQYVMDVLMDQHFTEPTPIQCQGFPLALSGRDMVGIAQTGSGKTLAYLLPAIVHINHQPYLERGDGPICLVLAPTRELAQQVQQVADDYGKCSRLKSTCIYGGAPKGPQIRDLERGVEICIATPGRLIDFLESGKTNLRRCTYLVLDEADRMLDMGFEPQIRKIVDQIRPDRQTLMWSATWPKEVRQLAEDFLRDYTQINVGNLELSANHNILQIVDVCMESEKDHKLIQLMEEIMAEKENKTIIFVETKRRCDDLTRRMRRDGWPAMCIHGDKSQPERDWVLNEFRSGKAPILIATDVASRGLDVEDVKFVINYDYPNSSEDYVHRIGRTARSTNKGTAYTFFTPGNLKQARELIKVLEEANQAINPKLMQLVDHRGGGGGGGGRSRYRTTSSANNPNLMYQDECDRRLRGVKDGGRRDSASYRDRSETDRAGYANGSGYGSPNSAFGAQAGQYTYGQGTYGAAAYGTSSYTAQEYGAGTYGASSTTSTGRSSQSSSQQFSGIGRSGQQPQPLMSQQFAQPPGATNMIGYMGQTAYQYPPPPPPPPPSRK
# UniProt Q00610: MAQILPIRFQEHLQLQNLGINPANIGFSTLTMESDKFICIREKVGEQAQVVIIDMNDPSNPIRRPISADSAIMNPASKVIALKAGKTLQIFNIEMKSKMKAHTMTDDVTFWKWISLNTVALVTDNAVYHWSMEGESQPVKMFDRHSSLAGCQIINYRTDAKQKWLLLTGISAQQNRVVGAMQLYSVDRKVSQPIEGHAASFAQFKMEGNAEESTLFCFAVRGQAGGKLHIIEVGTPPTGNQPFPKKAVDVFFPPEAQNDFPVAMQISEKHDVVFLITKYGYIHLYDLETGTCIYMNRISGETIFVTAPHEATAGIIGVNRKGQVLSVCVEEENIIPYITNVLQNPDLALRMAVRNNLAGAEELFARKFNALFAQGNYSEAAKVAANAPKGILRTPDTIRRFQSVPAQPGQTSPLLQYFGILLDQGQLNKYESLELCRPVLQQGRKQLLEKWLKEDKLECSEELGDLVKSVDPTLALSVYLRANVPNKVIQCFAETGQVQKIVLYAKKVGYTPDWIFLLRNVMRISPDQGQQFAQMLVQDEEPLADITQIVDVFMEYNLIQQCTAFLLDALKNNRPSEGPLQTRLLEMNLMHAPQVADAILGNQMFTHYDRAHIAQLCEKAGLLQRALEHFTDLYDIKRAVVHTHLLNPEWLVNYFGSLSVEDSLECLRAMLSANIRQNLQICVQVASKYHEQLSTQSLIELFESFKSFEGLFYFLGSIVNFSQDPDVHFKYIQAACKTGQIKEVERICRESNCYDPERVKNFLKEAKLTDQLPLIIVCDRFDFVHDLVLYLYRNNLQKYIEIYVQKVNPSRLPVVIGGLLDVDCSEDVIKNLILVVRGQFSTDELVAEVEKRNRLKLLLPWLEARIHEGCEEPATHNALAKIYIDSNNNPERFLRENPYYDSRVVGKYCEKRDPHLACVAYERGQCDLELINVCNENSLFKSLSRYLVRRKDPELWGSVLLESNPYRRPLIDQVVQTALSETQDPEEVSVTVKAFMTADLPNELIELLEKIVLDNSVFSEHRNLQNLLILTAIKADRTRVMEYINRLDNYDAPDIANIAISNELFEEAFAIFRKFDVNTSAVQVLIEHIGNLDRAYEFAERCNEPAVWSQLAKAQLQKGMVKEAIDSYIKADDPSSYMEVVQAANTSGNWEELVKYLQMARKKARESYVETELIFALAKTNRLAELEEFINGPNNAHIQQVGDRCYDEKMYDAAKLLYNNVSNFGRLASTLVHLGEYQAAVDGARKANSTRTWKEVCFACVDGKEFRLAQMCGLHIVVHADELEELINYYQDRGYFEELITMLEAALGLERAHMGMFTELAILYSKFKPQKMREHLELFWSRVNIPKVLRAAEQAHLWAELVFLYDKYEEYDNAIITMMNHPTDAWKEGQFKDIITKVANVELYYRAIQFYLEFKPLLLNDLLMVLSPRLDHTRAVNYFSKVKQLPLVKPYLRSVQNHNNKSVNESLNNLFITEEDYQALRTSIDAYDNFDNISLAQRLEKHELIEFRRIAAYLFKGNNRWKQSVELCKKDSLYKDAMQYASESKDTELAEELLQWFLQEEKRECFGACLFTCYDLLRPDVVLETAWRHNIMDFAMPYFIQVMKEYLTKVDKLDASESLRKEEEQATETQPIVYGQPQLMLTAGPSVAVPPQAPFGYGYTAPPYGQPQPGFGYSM
# UniProt O43684: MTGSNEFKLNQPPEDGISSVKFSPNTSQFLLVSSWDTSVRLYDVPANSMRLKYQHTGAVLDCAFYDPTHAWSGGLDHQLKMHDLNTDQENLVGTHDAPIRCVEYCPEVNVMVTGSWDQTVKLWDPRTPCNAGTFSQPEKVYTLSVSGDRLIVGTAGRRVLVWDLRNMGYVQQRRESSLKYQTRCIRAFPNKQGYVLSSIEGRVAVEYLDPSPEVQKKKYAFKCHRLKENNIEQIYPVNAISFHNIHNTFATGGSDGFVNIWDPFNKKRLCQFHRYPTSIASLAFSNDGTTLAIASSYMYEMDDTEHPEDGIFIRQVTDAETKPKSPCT
# Target: Human karyopherin beta-1/importin beta-1 (human (endogenous in HeLa)) (UniProt Q14974)
# Experiment: affinity purification with mass spectrometry; importin beta-1 captured with antibody Sigma I2534 cross-linked to Protein G-Sepharose from extract of RO3306-synchronized and released mitotic HeLa cells; lysis buffer 50 mM Tris HCl pH 8.0, 150 mM NaCl, 1% NP40; overnight at 4 °C; LTQ-Orbitrap …; mouse IgG as control
row,Substance,binding
1,Heterogeneous nuclear ribonucleoprotein K (from UniProt P61978 1-463),binds
2,Endoplasmin (from UniProt P14625 22-803),binds
3,Tubulin beta chain (from UniProt P07437 1-444),binds
4,Heat shock protein HSP 90-beta (from UniProt P08238 1-724),binds
5,14-3-3 protein epsilon (from UniProt P62258 1-255),binds
6,Histone H1x (from UniProt Q92522 1-213),binds
7,Ras GTPase-activating-like protein IQGAP1 (from UniProt P46940 1-1657),binds

# Other lines, results leading:
row,binding,Substance
1,binds,Probable ATP-dependent RNA helicase DDDX17 (from UniProt Q92841 1-729)
2,binds,RNA-binding protein EWS (from UniProt Q01844 1-656)
3,binds,Clathrin h)eavy chain 1 (from UniProt Q00610 1-1675)
4,binds,Mitotic checkpoint protein BUB3 (from UniProt O43684 1-328)
5,binds,Probable ATP-dependent RNA helicase DDDX5 (from UniProt P17844 1-614)

# Results are given in words; binding and its absence hold for the method and conditions named. In cells and extracts the contact can be indirect. A yes stands for co-enrichment or nearness to the bait. Other partners may have been found.
